Experiment [1] addresses Flag-FoxO1 (UniProt Q12778). Description: co-IP.
Experiment [2] has as its target T1, Flag-TRAF2 (UniProt Q12933).
T1 sequence: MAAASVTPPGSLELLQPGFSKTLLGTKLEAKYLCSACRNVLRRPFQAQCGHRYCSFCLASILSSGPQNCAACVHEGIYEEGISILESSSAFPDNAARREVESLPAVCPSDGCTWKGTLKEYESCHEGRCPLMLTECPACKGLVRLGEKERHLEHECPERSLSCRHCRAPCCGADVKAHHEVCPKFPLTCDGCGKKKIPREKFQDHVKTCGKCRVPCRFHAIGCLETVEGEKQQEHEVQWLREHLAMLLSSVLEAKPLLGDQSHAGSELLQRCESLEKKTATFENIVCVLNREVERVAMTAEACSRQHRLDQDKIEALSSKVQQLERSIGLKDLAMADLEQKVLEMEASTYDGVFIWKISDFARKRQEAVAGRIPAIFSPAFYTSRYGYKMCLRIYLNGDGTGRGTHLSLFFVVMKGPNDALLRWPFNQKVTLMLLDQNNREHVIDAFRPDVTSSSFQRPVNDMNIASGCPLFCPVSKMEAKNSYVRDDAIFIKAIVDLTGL
The experiment in a line: co-IP.

Amino acid sequences for entries named in this document (tags omitted).
UniProt Q12778: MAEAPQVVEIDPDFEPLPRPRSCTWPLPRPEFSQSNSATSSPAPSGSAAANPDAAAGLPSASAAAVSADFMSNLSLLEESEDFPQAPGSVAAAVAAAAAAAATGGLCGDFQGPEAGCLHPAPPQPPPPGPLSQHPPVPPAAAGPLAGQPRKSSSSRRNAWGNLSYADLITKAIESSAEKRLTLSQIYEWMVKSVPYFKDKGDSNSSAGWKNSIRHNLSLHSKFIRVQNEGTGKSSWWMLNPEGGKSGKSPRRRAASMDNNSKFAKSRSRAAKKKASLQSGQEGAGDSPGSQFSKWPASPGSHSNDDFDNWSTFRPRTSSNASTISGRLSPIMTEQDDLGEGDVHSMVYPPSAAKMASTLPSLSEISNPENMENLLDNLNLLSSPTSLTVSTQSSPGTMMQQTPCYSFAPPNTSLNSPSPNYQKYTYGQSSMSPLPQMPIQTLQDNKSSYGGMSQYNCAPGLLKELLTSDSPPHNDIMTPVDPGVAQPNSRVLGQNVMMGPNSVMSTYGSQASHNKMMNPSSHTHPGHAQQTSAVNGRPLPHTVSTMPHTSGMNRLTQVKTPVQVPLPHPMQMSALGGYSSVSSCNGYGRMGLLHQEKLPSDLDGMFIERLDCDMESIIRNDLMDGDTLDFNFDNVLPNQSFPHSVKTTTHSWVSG
UniProt Q14653: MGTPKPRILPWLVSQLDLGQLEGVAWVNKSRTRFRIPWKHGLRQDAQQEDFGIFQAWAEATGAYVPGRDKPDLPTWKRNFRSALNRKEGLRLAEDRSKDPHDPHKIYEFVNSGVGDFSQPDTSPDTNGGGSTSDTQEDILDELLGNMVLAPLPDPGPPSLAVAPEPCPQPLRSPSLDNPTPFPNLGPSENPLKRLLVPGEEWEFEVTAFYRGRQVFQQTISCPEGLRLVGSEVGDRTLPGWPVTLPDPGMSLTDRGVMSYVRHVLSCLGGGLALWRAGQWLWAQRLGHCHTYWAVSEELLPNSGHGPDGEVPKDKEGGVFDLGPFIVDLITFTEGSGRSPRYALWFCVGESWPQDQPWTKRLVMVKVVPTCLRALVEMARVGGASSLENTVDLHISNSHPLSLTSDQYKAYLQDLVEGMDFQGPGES

Among the data in doi:10.1101/2020.04.14.041293 are binding values, retold here.

Results are given in words; binding and its absence hold for the method and conditions named. In cells and extracts the contact can be indirect. Some binding calls cover weakened binding; strength is not graded here. For some assays here: Tags and fused reporters may be left off the sequences shown.

With “endogenous IRF3 (from UniProt Q14653 1-427)”, the binding entry in experiment [1] is listed as “binds”.

For Myc-FoxO1 (from UniProt Q12778 1-655), the binding result in experiment [2] is “no binding”.
